No constants are given. Whether binding was seen depends on the method and setting. Binding seen in cells or lysates may run through a third protein. Some results given as binding are weak or reduced against the parent protein; the word gives no strength. One block for each molecule: values may come before it.
Key:
[1] = biological target: T1, Discoidin domain receptor 1 (mouse (endogenous in primary VSMCs)) (UniProt Q03146); assay: co-IP; lysates of serum-starved primary mouse DDR1+/+ and DDR1-/- VSMCs (1% Triton lysis buffer, 20 mM Tris-HCl pH 7.5, 150 mM NaCl); anti-N-cadherin (ab18203) or anti-DDR1 (D1G6) antibody overnight at 4°C, Protein A agarose beads, three washes, western blot
T1 sequence: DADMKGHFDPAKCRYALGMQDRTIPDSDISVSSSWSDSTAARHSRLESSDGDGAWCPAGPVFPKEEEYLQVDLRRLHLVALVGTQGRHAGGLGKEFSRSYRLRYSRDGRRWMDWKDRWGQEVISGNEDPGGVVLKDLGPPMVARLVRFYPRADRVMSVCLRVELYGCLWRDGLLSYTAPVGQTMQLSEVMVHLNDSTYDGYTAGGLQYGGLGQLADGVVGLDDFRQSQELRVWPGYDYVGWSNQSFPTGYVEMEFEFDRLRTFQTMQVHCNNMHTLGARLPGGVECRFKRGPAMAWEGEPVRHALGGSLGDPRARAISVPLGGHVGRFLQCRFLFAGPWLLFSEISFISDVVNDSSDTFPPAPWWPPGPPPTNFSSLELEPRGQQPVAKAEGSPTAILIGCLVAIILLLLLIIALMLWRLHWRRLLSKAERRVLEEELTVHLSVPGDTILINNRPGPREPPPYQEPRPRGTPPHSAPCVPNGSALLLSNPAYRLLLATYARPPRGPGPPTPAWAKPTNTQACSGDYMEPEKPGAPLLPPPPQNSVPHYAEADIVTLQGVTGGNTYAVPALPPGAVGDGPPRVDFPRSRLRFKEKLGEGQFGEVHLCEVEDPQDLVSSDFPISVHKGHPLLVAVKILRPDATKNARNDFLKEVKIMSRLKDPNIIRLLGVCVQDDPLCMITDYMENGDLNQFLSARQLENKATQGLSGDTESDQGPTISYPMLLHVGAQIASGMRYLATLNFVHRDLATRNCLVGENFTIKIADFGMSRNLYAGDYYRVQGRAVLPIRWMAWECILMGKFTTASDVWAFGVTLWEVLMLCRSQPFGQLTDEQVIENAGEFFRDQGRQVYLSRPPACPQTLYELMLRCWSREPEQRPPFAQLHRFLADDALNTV

Chains of the proteins cited; added tags and fusions are not shown. Residues count along the entry.
UniProt P15116, residues 160-906: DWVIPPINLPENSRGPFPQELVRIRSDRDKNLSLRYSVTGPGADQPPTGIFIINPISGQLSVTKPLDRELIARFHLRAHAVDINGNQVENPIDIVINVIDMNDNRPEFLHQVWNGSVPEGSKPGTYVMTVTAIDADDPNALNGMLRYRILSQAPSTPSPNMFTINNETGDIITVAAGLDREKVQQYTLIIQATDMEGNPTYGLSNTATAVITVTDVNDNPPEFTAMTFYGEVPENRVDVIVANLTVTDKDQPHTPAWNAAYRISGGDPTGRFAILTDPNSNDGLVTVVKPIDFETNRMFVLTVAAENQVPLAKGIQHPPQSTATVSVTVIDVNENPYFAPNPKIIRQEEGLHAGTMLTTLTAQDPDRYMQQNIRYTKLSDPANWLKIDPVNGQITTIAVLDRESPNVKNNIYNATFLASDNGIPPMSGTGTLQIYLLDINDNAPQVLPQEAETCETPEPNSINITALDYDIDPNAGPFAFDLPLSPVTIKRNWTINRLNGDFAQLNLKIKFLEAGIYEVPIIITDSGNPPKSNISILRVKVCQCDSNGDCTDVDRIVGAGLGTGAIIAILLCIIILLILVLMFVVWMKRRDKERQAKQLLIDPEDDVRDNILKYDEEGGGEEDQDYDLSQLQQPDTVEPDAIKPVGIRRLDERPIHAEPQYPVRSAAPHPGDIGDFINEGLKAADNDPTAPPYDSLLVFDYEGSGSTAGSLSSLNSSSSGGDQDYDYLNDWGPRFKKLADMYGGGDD
UniProt Q02248: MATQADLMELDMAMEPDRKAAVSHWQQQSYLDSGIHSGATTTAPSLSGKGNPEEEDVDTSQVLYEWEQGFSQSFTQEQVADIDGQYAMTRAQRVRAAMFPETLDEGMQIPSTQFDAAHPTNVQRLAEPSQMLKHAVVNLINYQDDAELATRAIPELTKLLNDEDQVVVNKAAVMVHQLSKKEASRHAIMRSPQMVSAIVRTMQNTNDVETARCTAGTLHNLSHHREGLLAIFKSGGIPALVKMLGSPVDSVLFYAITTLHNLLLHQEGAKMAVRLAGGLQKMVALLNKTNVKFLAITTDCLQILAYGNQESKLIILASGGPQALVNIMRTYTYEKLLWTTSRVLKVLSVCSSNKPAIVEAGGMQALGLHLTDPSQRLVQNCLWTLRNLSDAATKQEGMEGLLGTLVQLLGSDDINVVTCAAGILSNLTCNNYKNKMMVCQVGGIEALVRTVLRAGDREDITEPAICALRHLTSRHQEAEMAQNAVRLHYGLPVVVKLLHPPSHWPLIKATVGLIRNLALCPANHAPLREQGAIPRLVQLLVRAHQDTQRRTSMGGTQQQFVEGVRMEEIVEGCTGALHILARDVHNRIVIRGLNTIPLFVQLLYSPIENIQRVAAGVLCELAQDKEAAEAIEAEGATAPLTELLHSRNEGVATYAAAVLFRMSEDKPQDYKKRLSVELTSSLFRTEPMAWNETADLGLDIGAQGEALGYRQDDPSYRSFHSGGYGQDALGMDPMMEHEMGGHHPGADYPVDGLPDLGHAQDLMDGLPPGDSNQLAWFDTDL

[2] = biological target: N-cadherin (mouse (endogenous in primary VSMCs)) (UniProt P15116); assay: as above

binding [1]: binds
Molecule: N-cadherin (from UniProt P15116 160-906)

binding [2]: binds
Molecule: β-catenin (from UniProt Q02248 1-781)

binding [2]: binds
B1: Discoidin domain receptor 1 (receptor, UniProt Q03146 20-911)
chain: T1 sequence

binding [2]: binds
B2: p120-catenin (protein, UniProt P30999 1-938)
chain: MDDSEVESTASILASVKEQEAQFEKLTRALEEERRHVSAQLERVRVSPQDANSLMANGTLTRRHQNGRFVGDADLERQKFSDLKLNGPQDHNHLLYSTIPRMQEPGQIVETYTEEDPEGAMSVVSVETTDDGTTRRTETTVKKVVKTMTTRTVQPVPMGPDGLPVDASAVSNNYIQTLGRDFRKNGNGGPGPYVGQAGTATLPRNFHYPPDGYGRHYEDGYPGGSDNYGSLSRVTRIEERYRPSMEGYRAPSRQDVYGPQPQVRVGGSSVDLHRFHPEPYGLEDDQRSMGYDDLDYGMMSDYGTARRTGTPSDPRRRLRSYEDMIGEEVPPDQYYWAPLAQHERGSLASLDSLRKGMPPPSNWRQPELPEVIAMLGFRLDAVKSNAAAYLQHLCYRNDKVKTDVRKLKGIPILVGLLDHPKKEVHLGACGALKNISFGRDQDNKIAIKNCDGVPALVRLLRKARDMDLTEVITGTLWNLSSHDSIKMEIVDHALHALTDEVIIPHSGWEREPNEDCKPRHIEWESVLTNTAGCLRNVSSERSEARRKLRECDGLVDALIFIVQAEIGQKDSDSKLVENCVCLLRNLSYQVHREIPQAERYQEALPTVANSTGPHAASCFGAKKGKDEWFSRGKKPTEDPANDTVDFPKRTSPARGYELLFQPEVVRIYISLLKESKTPAILEASAGAIQNLCAGRWTYGRYIRSALRQEKALSAIAELLTSEHERVVKAASGALRNLAVDARNKELIGKHAIPNLVKNLPGGQQNSSWNFSEDTVVSILNTINEVIAENLEAAKKLRETQGIEKLVLINKSGNRSEKEVRAAALVLQTIWGYKELRKPLEKEGWKKSDFQVNLNNASRSQSSHSYDDSTLPLIDRNQKSDKKPDREEIPMSNMGSNTKSLDNNYSTLNERGDHNRTLDRSGDLGDMEPLKGAPLMQKI
